This passage reports binding results from patent publication US20170198050A1 (INHIBRX, published 2017).

By UniProt entry, the sequences of proteins in these tests, tags left out. Where a name states a change or a piece, a line headed by the entry shows the natural chain unless it says otherwise. Residues count along the entry.
UniProt A9YYE7: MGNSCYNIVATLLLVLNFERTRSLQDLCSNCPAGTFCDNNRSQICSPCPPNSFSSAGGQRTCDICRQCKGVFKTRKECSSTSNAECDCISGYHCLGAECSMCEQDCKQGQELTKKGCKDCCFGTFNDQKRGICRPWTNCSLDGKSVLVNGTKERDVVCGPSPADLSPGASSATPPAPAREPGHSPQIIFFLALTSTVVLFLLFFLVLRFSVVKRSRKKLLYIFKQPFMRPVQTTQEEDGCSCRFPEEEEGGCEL
cynomolgus monkey 41BB expressed on the cell surface: residues 24-254 of A9YYE7
recombinant cynomolgus 41BB-mFc fusion protein: residues 24-186 of A9YYE7
UniProt Q9NZQ7, residues 19-290: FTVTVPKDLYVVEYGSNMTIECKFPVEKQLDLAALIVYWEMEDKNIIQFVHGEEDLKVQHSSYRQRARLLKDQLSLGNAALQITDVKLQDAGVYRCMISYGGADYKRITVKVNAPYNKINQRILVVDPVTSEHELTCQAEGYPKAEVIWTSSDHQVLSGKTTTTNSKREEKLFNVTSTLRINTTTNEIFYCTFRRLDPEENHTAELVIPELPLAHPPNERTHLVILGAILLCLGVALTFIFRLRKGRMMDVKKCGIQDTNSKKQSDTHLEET
UniProt Q07011, residues 24-255: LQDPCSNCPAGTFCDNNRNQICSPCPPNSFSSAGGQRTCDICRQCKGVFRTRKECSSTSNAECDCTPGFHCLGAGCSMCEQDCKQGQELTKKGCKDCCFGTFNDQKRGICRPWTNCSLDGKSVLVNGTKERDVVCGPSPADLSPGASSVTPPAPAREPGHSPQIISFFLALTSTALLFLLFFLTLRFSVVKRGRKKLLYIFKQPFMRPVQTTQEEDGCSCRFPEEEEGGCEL

Test [1] concerns the target recombinant cynomolgus 41BB-mFc fusion protein (cynomolgus monkey) (UniProt A9YYE7). Nature of the test: ELISA, recombinant 41BB-mFc immobilized on Medisorp plate.
Test [2] has the same target. The experiment in a line: ELISA, recombinant 41BB-mFc immobilized on Medisorp plate (FIG. 4).
In test [3] the target is cell surface PDL1 (species not stated) (UniProt Q9NZQ7). The experiment in a line: flow cytometry on PDL1 expressing CHO cells.
Test [4] has the same target. The experiment in a line: flow cytometry on PDL1 expressing CHO cells (FIG. 7A).
The target is the same in test [5]. Nature of the test: flow cytometry on PDL1-expressing CHO cells.
Test [6] deals with cynomolgus monkey 41BB expressed on the cell surface (cynomolgus monkey) (UniProt A9YYE7). Nature of the test: flow cytometry on 41BB expressing 293freestyle cells.
The target of test [7] is cell surface 41BB (species not stated) (UniProt Q07011). The experiment in a line: flow cytometry on CHO cells expressing the given TNFRSF member.
Test [8] has the same target. The experiment in a line: flow cytometry on CHO cells expressing the given TNFRSF member (FIG. 10).

No constants are given. Whether binding was seen depends on the method and setting. Some binding calls cover weakened binding; strength is not graded here.

B1: 1H8 (VHH)
VHH: EVQLVQSGGGLVQPGGSLRLSCAASGFTFSSYYMSWVRQAPGKGLEWVSTISTNTGGGSTYYAYADSVKGRFTISRDNAKNTLYLEMNSLKPEDTAQYYCVRTRWEGVYDYWGLGTQV
notes: also called 41BB-targeting single domain antibody 1H8
For the molecule B1, in test [1], the binding entry is given as “binds”.

B2: RH3 (VHH)
VHH: QVQLQESGGGLVQPGGSLRLSCAVSGFSFSINAMGWYRQAPGKRREFLAAIDSGRNTVYAVSVKGRFTISRDNAKNTVYLQMNSLKPEDTAIYYCGLLKGNRVVSPSVAYWGQGTQVT
notes: also called RH03
Take B2: the binding result in test [2] is “binds”.

B3: 28A10 (VHH)
VHH: QVQLQESGGGLVQAGGSLRLACTTSGGIFNIRPISWYRQPPGMQREWVATIAFGGATNYANSIKGRFTASRDNAKNTVYLQMNGLKPEDTAVYYCNAFEIWGQGTQVTV
Consider B3, for which the binding entry in test [3] and in test [4] was “binds” each time.

B4: 4H04 (VHH)
VHH: QVQLQESGGGLVQAGDSLRLSCAASGWAFDNYGMAWFRQAPGKEREFIGRLAWNGGSTDYADSVKGRFTISRDNPKNTLYLQMNNLKPEDTAVYYCARQRSYSGYGIRTPQTYDYWGQGTQVT
notes: also called 4H4
For the molecule B4, the binding entry in test [1] and in test [2] was “binds” each time.

B5: 4E01 (VHH)
VHH: QVQLQQSGGGLVQAGDSLRLSCAASGWAFGNYGMAWFRRAPGKEREFIGRLAWNGGSTDYVDSVKGRFTISRDNPKNTLYLQMNNLKPDDTAVYYCARQRSYSRYDIRTPQTYDYWGQGTQVT
notes: also called 4E1
For the molecule B5, the binding result in test [1] is listed as “binds”.

B6: 4F5 (VHH)
VHH: QVQLVQSGGGLVQPGGSLRLSCAASGWAFDNYGMAWFRQAPGKEREFIGRLAWNGGSTDYADSVKGRFTISRDNPKNTLYLQMNSLKPEDTAVYYCARQRSYSRYGIRAPQTYDYWGQGTQVT
notes: also called 4F05
For the molecule B6, in test [1], the binding result is on record as “binds”.

B7: 1H1 (VHH)
VHH: QVQLVQSGGGLVQPGGSLRLSCAASGFTFDDHAMSWVRQAPGKGLEWVSAISWNGHYTYYAESMKGRFAISRDNAKNTLYLQMNSLKSEDTAVYYCVKGWRGSYTRDRPFASWGQGTQV
notes: also called 41BB-targeting single domain antibody 1H1
Consider B7, for which, in test [1], the binding result is “binds”.

B8: hz28A2v4-1 (VHH)
VHH: EVQLLESGGGEVQPGGSLRLSCAASGGIFAIKPISWYRQAPGKQREWVTTTTSSGATNYAESVKGRFTISRDNAKNTVYLQMSSLRAEDTAVYYCNVFEYWGQGTLVTVKP
For the molecule B8, the binding result in test [5] was “binds”.

B9: 1G3 (VHH)
VHH: QVQLVQSGGGLVQPGGSLRLSCAASGFTFSSYAMSWVRQAPGKGLEWVSAIPAGDGSTKYADSVKGRFTISRDNAKNTVYLQMDSLKPEDTAVYFCAKSRGWSTVDDMDYWGKGTQV
notes: also called 41BB-targeting single domain antibody 1G3
For the molecule B9, in test [1], the binding entry is reported as “binds”.

B10: 1H4 (VHH)
VHH: QVQLVQSGGGLVQPGGSLRLSCVVSGFTFRSYAMSWVRQAPGKGLEWVSTINSGESSTKYADSVKGRFTISRDDAKNTLYLQMSDLKPEDTAVYFCAKHRGWSTVDDINYWGKGTQV
notes: also called 41BB-targeting single domain antibody 1H4
In the case of B10, the binding result in test [1] is recorded as “binds”.

B11: hzRH3v5-1 (VHH)
VHH: EVQLLESGGGEVQPGGSLRLSCAASGFSFSINAMGWYRQAPGKRREFVAAIESGRNTVYAESVKGRFTISRDNAKNTVYLQMSSLRAEDTAVYYCGLLKGNRVVSPSVAYWGQGTLVTVKP
Consider B11, for which the binding result in test [6], in test [7] and in test [8] was “binds” throughout.

B12: hzRH3v9 (VHH)
VHH: EVQLLESGGGEVQPGGSLRLSCAASGFSFSINAMGWYRQAPGKGREFVAAIESGRNTVYAESVKGRFTISRDNAKNTVYLQMSSLRAEDTAVYYCGLLKGNRVVSPSVAYWGQGTLVTVKP
Turning to B12, the binding result in test [6] is on record as “binds”.
